# Reference: the supplement of paper PMC6411743
# ± gives the standard deviation of the averaged measurements. This is a selection; strong and weak results do not stand in their true shares.
# Assays:
# Experiment in all cases: NP40-soluble protein abundance relative to vehicle (solubility fold change) (ratio); higher = more soluble protein in presence of AMP-PNP
# [1] = target: T1, I3L1Q3 and related entries (UniProt Q8TE02)
# T1 sequence (whole entry): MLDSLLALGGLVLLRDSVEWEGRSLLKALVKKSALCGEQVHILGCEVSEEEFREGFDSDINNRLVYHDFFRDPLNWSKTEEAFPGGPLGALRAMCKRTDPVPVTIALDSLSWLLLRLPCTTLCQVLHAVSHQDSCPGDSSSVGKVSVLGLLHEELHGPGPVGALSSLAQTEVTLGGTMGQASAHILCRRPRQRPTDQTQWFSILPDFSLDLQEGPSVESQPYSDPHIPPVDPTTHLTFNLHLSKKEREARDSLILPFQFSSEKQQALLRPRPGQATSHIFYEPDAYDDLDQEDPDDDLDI
# Summary of the method: (§1)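 Data come from three independent experiments in which Dounce-homogenised Jurkat crude lysate was treated at eight concentrations from 0.1 to 10 mM. Treatment ran 10 min at room temperature and then 3 min at 37 °C, after which 0.8% NP40 and benzonase were added for 60 min at 4 °C before ultracentrifugation. The supernatant underwent TMT labelling and LC-MS/MS, and vsn-normalised intensities were expressed as fold change against the detergent-processed vehicle in each replicate.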
# [2] = target: T2, I3L2N2 and related entries (UniProt O14641)
# T2 sequence (whole entry): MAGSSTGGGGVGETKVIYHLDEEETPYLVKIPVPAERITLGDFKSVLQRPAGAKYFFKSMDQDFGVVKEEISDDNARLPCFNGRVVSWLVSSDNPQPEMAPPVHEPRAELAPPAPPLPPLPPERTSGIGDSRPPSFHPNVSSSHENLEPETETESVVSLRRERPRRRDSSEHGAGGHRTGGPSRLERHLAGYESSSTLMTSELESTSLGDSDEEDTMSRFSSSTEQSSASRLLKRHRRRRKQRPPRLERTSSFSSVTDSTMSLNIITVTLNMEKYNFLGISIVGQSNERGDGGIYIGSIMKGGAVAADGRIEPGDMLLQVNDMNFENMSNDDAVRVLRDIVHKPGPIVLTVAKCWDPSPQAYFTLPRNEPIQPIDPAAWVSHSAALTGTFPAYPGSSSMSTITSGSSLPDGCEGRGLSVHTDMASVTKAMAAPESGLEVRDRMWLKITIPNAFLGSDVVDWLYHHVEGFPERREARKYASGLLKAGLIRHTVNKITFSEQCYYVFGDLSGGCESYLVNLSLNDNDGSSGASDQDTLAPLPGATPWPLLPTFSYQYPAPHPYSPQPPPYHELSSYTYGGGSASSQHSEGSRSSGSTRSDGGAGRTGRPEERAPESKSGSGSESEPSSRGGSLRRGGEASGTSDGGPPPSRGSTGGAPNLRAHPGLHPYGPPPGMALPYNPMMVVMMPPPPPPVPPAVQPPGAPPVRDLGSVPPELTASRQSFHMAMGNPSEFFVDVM
# Summary of the method: as §1
# J3KNF4 = target: T3, J3KNF4 (UniProt O14618)
# T3 sequence (whole entry): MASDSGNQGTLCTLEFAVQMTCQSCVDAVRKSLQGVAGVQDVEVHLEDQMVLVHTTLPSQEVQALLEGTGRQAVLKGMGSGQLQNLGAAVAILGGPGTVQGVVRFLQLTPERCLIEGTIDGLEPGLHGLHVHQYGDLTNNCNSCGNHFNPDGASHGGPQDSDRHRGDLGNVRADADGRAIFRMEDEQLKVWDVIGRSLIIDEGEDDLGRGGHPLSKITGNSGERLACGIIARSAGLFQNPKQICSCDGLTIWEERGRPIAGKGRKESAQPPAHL
# Summary of the method: as §1
# [3] = target: T4, J3KNG8 and related entries (UniProt Q8TF40)
# T4 sequence (whole entry): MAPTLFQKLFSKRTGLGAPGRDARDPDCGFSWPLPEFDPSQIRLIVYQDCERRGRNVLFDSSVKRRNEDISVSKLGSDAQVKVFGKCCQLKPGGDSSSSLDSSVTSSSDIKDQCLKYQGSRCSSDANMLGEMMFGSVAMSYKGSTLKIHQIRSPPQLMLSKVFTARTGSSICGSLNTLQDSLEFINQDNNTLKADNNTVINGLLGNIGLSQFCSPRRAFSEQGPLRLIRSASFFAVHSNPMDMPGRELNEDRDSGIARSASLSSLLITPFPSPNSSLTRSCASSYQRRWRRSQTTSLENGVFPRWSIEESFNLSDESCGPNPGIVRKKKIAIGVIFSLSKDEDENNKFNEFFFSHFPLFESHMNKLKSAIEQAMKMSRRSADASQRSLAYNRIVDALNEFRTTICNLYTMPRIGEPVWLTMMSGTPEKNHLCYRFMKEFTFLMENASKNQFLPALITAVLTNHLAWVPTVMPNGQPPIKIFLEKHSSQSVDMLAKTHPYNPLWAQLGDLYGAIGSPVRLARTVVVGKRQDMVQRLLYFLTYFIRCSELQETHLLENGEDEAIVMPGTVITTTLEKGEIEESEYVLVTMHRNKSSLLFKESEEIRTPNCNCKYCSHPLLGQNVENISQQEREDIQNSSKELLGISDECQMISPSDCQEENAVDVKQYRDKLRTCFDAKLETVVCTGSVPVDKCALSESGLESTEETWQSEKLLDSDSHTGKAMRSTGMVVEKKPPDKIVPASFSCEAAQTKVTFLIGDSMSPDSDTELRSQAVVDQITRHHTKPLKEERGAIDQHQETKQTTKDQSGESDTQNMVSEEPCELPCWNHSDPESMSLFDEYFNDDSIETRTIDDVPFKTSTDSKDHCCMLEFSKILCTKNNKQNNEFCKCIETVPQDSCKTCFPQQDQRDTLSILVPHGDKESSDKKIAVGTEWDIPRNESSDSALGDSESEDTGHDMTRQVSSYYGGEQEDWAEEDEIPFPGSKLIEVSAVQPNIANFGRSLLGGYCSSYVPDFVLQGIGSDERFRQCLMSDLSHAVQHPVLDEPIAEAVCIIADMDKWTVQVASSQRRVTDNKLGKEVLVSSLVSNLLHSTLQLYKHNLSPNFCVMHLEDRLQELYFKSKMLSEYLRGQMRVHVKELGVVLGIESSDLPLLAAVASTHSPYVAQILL
# Summary of the method: as §1
# [4] = target: T5, J3KPD3 and related entries (UniProt Q9Y580)
# T5 sequence (whole entry): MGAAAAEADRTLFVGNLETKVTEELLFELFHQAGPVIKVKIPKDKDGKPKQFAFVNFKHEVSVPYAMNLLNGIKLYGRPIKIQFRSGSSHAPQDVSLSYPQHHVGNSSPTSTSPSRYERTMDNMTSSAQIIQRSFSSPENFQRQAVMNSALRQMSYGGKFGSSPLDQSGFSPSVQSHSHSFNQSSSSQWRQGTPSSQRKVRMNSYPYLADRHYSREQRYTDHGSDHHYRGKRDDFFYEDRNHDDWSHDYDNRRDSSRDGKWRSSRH
# Summary of the method: as §1
smiles,measurement,setting,value
Nc1ncnc2c1ncn2[C@@H]1O[C@H](COP(=O)(O)OP(=O)(O)NP(=O)(O)O)[C@@H](O)[C@H]1O [adenylyl imidodiphosphate],NP40-soluble protein abundance,[1]; concentration: 6mM,0.956 ± 0.037
same,NP40-soluble protein abundance,[1]; concentration: 8mM,0.967 ± 0.065
same,NP40-soluble protein abundance,[1]; concentration: 10mM,0.96 ± 0.038
same,NP40-soluble protein abundance,[2]; concentration: 1mM,1.01 ± 0.03
same,NP40-soluble protein abundance,[2]; concentration: 2mM,1.03 ± 0.013
same,NP40-soluble protein abundance,[2]; concentration: 4mM,0.99 ± 0.018
same,NP40-soluble protein abundance,[2]; concentration: 6mM,0.961 ± 0.051
same,NP40-soluble protein abundance,[2]; concentration: 8mM,0.922 ± 0.027
same,NP40-soluble protein abundance,[2]; concentration: 10mM,0.948 ± 0.041
same,NP40-soluble protein abundance,J3KNF4; concentration: 1mM,1.03 ± 0.026
same,NP40-soluble protein abundance,J3KNF4; concentration: 2mM,1.04 ± 0.031
same,NP40-soluble protein abundance,J3KNF4; concentration: 4mM,0.997 ± 0.064
same,NP40-soluble protein abundance,J3KNF4; concentration: 6mM,0.973 ± 0.027
same,NP40-soluble protein abundance,J3KNF4; concentration: 8mM,0.949 ± 0.027
same,NP40-soluble protein abundance,J3KNF4; concentration: 10mM,0.954 ± 0.082
same,NP40-soluble protein abundance,[3]; concentration: 1mM,0.976 ± 0.036
same,NP40-soluble protein abundance,[3]; concentration: 2mM,0.989 ± 0.027
same,NP40-soluble protein abundance,[3]; concentration: 4mM,0.978 ± 0.014
same,NP40-soluble protein abundance,[3]; concentration: 6mM,0.967 ± 0.043
same,NP40-soluble protein abundance,[3]; concentration: 8mM,0.9777 ± 0.0046
same,NP40-soluble protein abundance,[3]; concentration: 10mM,0.976 ± 0.022
same,NP40-soluble protein abundance,[4]; concentration: 1mM,0.97 ± 0.069
same,NP40-soluble protein abundance,[4]; concentration: 2mM,0.99 ± 0.029
same,NP40-soluble protein abundance,[4]; concentration: 4mM,0.973 ± 0.051
same,NP40-soluble protein abundance,[4]; concentration: 6mM,0.989 ± 0.077

# Reprinted from above for reference:
smiles,measurement,setting,value
Nc1ncnc2c1ncn2[C@@H]1O[C@H](COP(=O)(O)OP(=O)(O)NP(=O)(O)O)[C@@H](O)[C@H]1O [adenylyl imidodiphosphate],NP40-soluble protein abundance,J3KNF4; concentration: 4mM,0.997 ± 0.064
same,NP40-soluble protein abundance,J3KNF4; concentration: 6mM,0.973 ± 0.027
